From paper PMC5615048 come the findings set out here.

Chains of the proteins cited; added tags and fusions are not shown.
UniProt Q99PV8: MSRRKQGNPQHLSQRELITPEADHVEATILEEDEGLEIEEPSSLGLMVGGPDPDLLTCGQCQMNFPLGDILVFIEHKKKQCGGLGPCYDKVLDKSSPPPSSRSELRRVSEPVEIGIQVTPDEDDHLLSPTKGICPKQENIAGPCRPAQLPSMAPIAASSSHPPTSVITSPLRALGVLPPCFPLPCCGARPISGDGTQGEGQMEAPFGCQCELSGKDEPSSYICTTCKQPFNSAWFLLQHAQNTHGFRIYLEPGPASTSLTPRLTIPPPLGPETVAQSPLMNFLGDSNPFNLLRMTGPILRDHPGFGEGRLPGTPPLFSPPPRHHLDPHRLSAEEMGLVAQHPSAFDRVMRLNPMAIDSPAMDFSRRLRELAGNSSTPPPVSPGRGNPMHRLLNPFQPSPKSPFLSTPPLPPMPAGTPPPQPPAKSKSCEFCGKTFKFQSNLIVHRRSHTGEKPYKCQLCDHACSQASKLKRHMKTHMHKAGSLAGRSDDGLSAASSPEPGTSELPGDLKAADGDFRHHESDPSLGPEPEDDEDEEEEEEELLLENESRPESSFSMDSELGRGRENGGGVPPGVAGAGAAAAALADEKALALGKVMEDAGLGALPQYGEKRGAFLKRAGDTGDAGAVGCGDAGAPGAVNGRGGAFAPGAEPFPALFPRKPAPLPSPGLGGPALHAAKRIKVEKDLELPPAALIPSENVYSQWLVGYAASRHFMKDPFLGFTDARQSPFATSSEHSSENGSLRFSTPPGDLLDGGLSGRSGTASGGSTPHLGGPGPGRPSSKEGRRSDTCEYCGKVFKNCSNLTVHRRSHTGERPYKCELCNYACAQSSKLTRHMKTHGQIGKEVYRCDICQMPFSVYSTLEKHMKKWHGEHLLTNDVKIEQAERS
UniProt Q03347: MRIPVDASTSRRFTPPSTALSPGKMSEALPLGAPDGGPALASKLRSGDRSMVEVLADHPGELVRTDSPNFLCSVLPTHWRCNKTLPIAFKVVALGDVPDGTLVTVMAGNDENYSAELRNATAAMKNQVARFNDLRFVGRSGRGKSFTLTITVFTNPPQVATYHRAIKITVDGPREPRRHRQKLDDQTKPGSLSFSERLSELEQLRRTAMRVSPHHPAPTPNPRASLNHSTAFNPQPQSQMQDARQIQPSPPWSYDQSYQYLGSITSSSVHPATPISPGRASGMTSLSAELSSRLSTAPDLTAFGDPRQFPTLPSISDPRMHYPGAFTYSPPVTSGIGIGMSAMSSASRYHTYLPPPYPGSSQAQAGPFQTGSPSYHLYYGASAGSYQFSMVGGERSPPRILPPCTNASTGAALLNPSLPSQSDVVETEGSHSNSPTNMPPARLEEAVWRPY

These are yes or no findings as the source states them, for the method shown. In cells and extracts the contact can be indirect. Some entries that bind do so weakly or less than the wild type.

The target in the assay is Bcl11b (mouse (endogenous in thymocytes)) (UniProt Q99PV8). Briefly: co-IP; nuclear extract of 10 x 10^6 total thymocytes (NE-PER kit) incubated with anti-Bcl11b antibody (A300-383A) pre-mixed with Dynabeads ProteinA, overnight at 4 °C; western blot with anti-Runx1 serum. (In general: A western blot detects proteins with antibodies after separation by electrophoresis.)

Turning to Runx1 (from UniProt Q03347 1-451), the binding result is “binds”.
